Patent publication US20240150824 (published 2024)

Assay: general procedure: Fmoc solid-phase peptide synthesis; ChemMatrix Rink amide resin; HATU with NMM
Conditions: conjugation step

In the case of Hex-4Npa-(K′2-P)10—K4—NH2, the conjugation yield is reported as 20-40%.
